PubChem BioAssay AID1259405 – NCATS | 2018
The deposit covers about 50,000 reagents; this is an unselected part. Of all reagents, about 4,000 (8%) are marked active. 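Mouse siRNA library applied to hamster cells; one well for each siRNA.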 Unmarked entries are inactive. The numbers tell different reagents against one gene apart. Reagent sequences are not shown.

Test: 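Mouse-designed siRNAs used to find CHO productivity engineering targets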 (primary screen)
Cells: Chinese hamster CHO-K1 ovary cells with stable secreted eGFP expression
Reagents: single siRNA against mouse genes, 0.8 pmol siRNA per well (2 µl of 400 nM stock)
Duration: 3 days
Detection: 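Percent of the per-plate non-targeting control median for intracellular GFP per well by laser scanning cytometry and for cell viability by ATP luminescence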
Direction: GFP, % of control: higher = more GFP per well, higher productivity; viability (ATP), % of control: higher = more viable cells (more ATP)
Call rule: 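Called active when intracellular GFP, relative to negative control, is at or above 120%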

| gene knocked down | reagent no. | GFP, % of control | viability (ATP), % of control |
| --- | --- | --- | --- |
| Or4c104 | 1 | 52.2 | 67.8 |
| Or4c104 | 2 | 46.1 | 66.1 |
| Or4c104 | 3 | 62.3 | 75.1 |
| Prkar2a | 1 | 114 | 95.5 |
| Prkar2a | 2 | 91.8 | 86.6 |
| Adh1 | 1 | 76.5 | 66 |
| Adh1 | 2 | 101 | 60 |
| Adh1 | 3 | 119 | 85.2 |
| Nphp1 | 1 | 37.7 | 98.3 |
| Nphp1 | 2 | 63 | 80.9 |
| Nphp1 | 3 | 100 | 118 |
| Samd10 | 1 | 71.9 | 87 |
| Samd10 | 2 | 49.1 | 56.7 |
| Samd10 | 3 | 74.4 | 74.3 |
| Ctdp1 | 1 | 59.5 | 78 |
| Ctdp1 | 2 | 116 | 83.8 |
| Ctdp1 | 3 | 88 | 63.5 |
| Mmp9 | 1 | 70 | 111 |
| Mmp9 | 2 | 81.8 | 84.1 |
| Ica1l | 1 | 83.6 | 81.1 |
| Ica1l | 2 | 91.5 | 75.9 |
| Ica1l | 3 | 50.9 | 90 |
| Zfp869 | 1 | 61.7 | 75 |
| Zfp869 | 2 | 56.8 | 51.9 |
| Zfp869 | 3 | 94.2 | 77.4 |
| Edn3 | 1 | 93.2 | 73.8 |
| Edn3 | 2 | 55.1 | 74.6 |
| Edn3 | 3 | 67.7 | 64.9 |
| Padi4 | 1 | 137 (active) | 88.3 |
| Padi4 | 2 | 117 | 76.4 |
| Padi4 | 3 | 28.3 | 45.6 |
| Cast | 1 | 75.1 | 52.9 |
| Cast | 2 | 99.7 | 66.1 |
| Cast | 3 | 96 | 92 |

A few values from the entries so far.
Entry for Or4c104 #1 under “GFP, % of control”: 52.2
Value for Nphp1 #2 under “GFP, % of control”: 63
Or4c104 #3, GFP, % of control: 62.3
Result of Padi4 #2 in “GFP, % of control”: 117
